Reference: PubChem BioAssay AID1671195 (Yale University, 2021)

Test: 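Regulators of LDL receptor activity judged by labelled LDL uptake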 (primary screen)
Cell system: human Huh7 hepatoma cells
Reagent: siRNA pool against human genes, 18 nM
Duration: about 2 to 2.5 days of knockdown, then 8 h LDL uptake
Treatment: DiI-labelled LDL at 30 µg/ml for 8 h, in lipoprotein-deficient serum medium
Measured: 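Fluorescent LDL signal imaged in cells, scaled to the plate median, robust z-score for each replicate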
Scale: robust z-score: higher = more LDL uptake after knockdown
Rule for the call: 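Active when two or more replicates show a robust z-score above 2 or below -2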
This is one part, drawn at random, of about 22,000 reagents. In the full data, about 1,510 (6.9%) got an active call. 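Active includes knockdowns raising or lowering LDL uptake; positive z-scores mean more uptake, negative mean less.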 No sequences are given here.

FUT5 [SID442900679] scored robust z-score, replicate 1 = -1.16; robust z-score, replicate 2 = -0.76; robust z-score, replicate 3 = -0.46; inactive.
Against CABCOCO1 [SID442891058], the entry reads robust z-score, replicate 1 = 0.346; robust z-score, replicate 2 = 0.000689; robust z-score, replicate 3 = 0.664; inactive.
Depletion of KRTCAP3 [SID442901168] resulted in: robust z-score, replicate 1 = -1.19; robust z-score, replicate 2 = -0.633; robust z-score, replicate 3 = -0.76; inactive.
Silencing of LRIT1 [SID442903430] gave: robust z-score, replicate 1 = -2.18; robust z-score, replicate 2 = -1.04; robust z-score, replicate 3 = -0.664; inactive.
Depletion of LOC442350 (retired record) [SID442888827] resulted in: robust z-score, replicate 1 = 0.408; robust z-score, replicate 2 = 0.317; robust z-score, replicate 3 = 1.24; inactive.
After knock-down of TMEM69 [SID442884210], the record shows robust z-score, replicate 1 = 3.69; robust z-score, replicate 2 = 2.12; robust z-score, replicate 3 = -0.742; active.
Against SNX29 [SID442886419], the entry reads robust z-score, replicate 1 = 1.5; robust z-score, replicate 2 = 0.732; robust z-score, replicate 3 = 1.26; inactive.
SOX2 [SID442886262] showed robust z-score, replicate 1 = 0.413; robust z-score, replicate 2 = 1.4; robust z-score, replicate 3 = 1.83; inactive.
Against ITGA10 [SID442896937], the entry reads robust z-score, replicate 1 = 0.344; robust z-score, replicate 2 = -0.395; robust z-score, replicate 3 = -0.934; inactive.
Silencing of BOLA3 [SID442897779] resulted in: robust z-score, replicate 1 = -0.238; robust z-score, replicate 2 = -0.664; robust z-score, replicate 3 = -0.369; inactive.
Knock-down of FBXO45 [SID442886785] came out at: robust z-score, replicate 1 = 1.71; robust z-score, replicate 2 = 1.32; robust z-score, replicate 3 = 0.166; inactive.
Against LOC389657 (retired record) [SID442894760] the deposit lists robust z-score, replicate 1 = 0.0138; robust z-score, replicate 2 = -0.0906; robust z-score, replicate 3 = -0.217; inactive.
Silencing of AOPEP [SID442897156] gave: robust z-score, replicate 1 = -0.472; robust z-score, replicate 2 = -0.136; robust z-score, replicate 3 = -0.451; inactive.
With knock-down of OGA [SID442897286] the results were robust z-score, replicate 1 = -0.579; robust z-score, replicate 2 = 0.522; robust z-score, replicate 3 = -1.05; inactive.
LOC440858 (retired record) [SID442891141] showed robust z-score, replicate 1 = 0.567; robust z-score, replicate 2 = 0.112; robust z-score, replicate 3 = 0.296; inactive.
MORF4 [SID442900393] gave robust z-score, replicate 1 = -1.58; robust z-score, replicate 2 = 0.231; robust z-score, replicate 3 = -0.914; inactive.
LINC02396 [SID442902472] gave robust z-score, replicate 1 = -1.25; robust z-score, replicate 2 = -0.976; robust z-score, replicate 3 = -1.02; inactive.
Against UQCRQ [SID442892320], the entry reads robust z-score, replicate 1 = 0.733; robust z-score, replicate 2 = -1.13; robust z-score, replicate 3 = 0.941; inactive.
With knock-down of LOC440984 (retired record) [SID442887005] the results were robust z-score, replicate 1 = 1.12; robust z-score, replicate 2 = 1.1; robust z-score, replicate 3 = 0.805; inactive.
NTHL1 [SID442886359] scored robust z-score, replicate 1 = 1.16; robust z-score, replicate 2 = 1.83; robust z-score, replicate 3 = 0.561; inactive.
For SFXN1 [SID442900880] the deposit lists robust z-score, replicate 1 = -0.908; robust z-score, replicate 2 = -0.866; robust z-score, replicate 3 = -0.688; inactive.
NNMT [SID442895486] scored robust z-score, replicate 1 = -0.39; robust z-score, replicate 2 = 0.307; robust z-score, replicate 3 = -0.438; inactive.
For APIP [SID442901973], the entry reads robust z-score, replicate 1 = -0.504; robust z-score, replicate 2 = -1.62; robust z-score, replicate 3 = -0.847; inactive.
BTBD9 [SID442894672] scored robust z-score, replicate 1 = 0.416; robust z-score, replicate 2 = -0.527; robust z-score, replicate 3 = -0.157; inactive.
